Data as given in PubChem BioAssay AID1671195 (Yale University, 2021).
Shown is one part, drawn at random, of about 22,000 deposited reagents. In the full data, about 1,510 (6.9%) got an active call. 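Active includes knockdowns raising or lowering LDL uptake; positive z-scores mean more uptake, negative mean less.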

- Assay: 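Regulators of LDL receptor activity judged by labelled LDL uptake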 (primary screen)
- Cell system: human Huh7 hepatoma cells
- Knock-down reagent: siRNA pool against human genes, 18 nM
- Time to read-out: about 2 to 2.5 days of knockdown, then 8 h LDL uptake
- Challenge: DiI-labelled LDL at 30 µg/ml for 8 h, in lipoprotein-deficient serum medium
- Read-out: 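Fluorescent LDL signal imaged in cells, scaled to the plate median, robust z-score for each replicate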
- Scale: robust z-score: higher = more LDL uptake after knockdown
- Active means: 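a gene counts as active if at least two replicate z-scores exceed ±2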

gene symbol	robust z-score, replicate 1	robust z-score, replicate 2	robust z-score, replicate 3	outcome
RLIM	0.343	0.565	0.319	inactive
MGAT4A	-0.0466	-0.23	-0.402	inactive
ZNF32	-0.195	-0.386	0.0693	inactive
ACVR1C	-0.764	-0.503	-0.73	inactive
TMEM207	1.17	1.47	1.32	inactive
RELB	0.613	0.856	1.05	inactive
RRP12	-0.334	-0.32	0.342	inactive
LRR1	-1.29	-0.906	-1.07	inactive
ACD	0.287	-0.014	0.249	inactive
ZHX2	-1.95	-1.75	-1.22	inactive
WFDC1	-1.02	-0.479	-1.07	inactive
SLC35F5	2.83	2.85	2.31	active
PPM1G	-0.108	0.272	0.169	inactive
SPARC	-1.51	-0.185	-0.256	inactive
C8orf58	0.638	1.25	0.63	inactive
LOC286327 (retired record)	-0.981	-0.968	-0.986	inactive
DEFB121	2.1	2.17	2.45	active
TAS2R60	-0.185	-0.381	-0.487	inactive
CDR2L	1.12	1.56	0.0326	inactive
GAD2	-0.993	0.227	-0.0879	inactive
TTLL6	-0.519	-0.228	0.029	inactive
TAP2	-0.502	-0.118	-0.668	inactive
LOC441886 (retired record)	0.591	0.764	0.78	inactive
TCF20	-0.368	-0.0975	-0.282	inactive
GFER	-0.944	-0.745	-1.07	inactive
AOX1	-0.426	0.0151	-0.29	inactive
NAIP	0.38	-0.0548	0.459	inactive
SIGLEC17P	-1.44	-1.46	-1.52	inactive
LOC401126 (retired record)	-0.318	-0.0377	0.143	inactive
RCC2	0.386	0.0641	-1.2	inactive
KIAA0087	0.276	-0.505	-1.42	inactive
CBR3	0.0159	-0.0133	-0.0479	inactive
NACA2	0.306	0.585	0.45	inactive
DNAJB1	-0.442	-0.901	-0.58	inactive
ITGA2B	0.336	-0.603	0.428	inactive
WNT6	-0.895	0.529	-1.49	inactive
TRIM69	-1.72	-1.38	-1.18	inactive
ING1	-0.801	-0.939	-0.801	inactive
LOC440197 (retired record)	0.0239	-0.429	-0.39	inactive
IVD	0.661	1.23	0.291	inactive
ACTL6B	-0.216	-0.106	0.631	inactive
M6PR	4.19	5.51	2.47	active
UBQLN1	0.645	2.3	2.12	active
CTDSPL	-1.39	-1.52	-1.62	inactive
PLA2G2A	0.0791	0.349	0.274	inactive
SPARCL1	-0.432	-0.507	-1.56	inactive
CLEC4A	-1.33	-2.33	-0.743	inactive
C21orf114 (retired record)	1.42	2.16	1.72	inactive
OASL	-0.289	-0.226	-0.237	inactive
SSU72P1	-0.948	-0.975	-0.876	inactive
TANK	-0.62	-0.602	-0.994	inactive
FAM218A	0.136	0.333	-0.0941	inactive
PAK3	-1.15	-0.172	-1.27	inactive
KDM3B	-0.366	-1.32	-0.242	inactive
SP4	-0.112	0.195	0.0825	inactive
SLC49A3	-0.283	-0.0348	-0.248	inactive
OR4S1	-0.111	0.349	0.117	inactive
TPT1P9	3.3	2.72	2.72	active
ZCCHC7	-0.15	-0.394	-0.458	inactive
KIAA1328	0.985	1.06	0.235	inactive
RAB28	-0.213	-0.353	0.0749	inactive
UBQLNL	1.31	1.28	1.19	inactive
RBM4	-2.04	-1.51	-1.68	inactive
PSMA1	0.921	0.618	0.981	inactive
DDX55	-1.63	-1.61	-1.61	inactive
ALDH1L1	-1.38	-1.64	-1.48	inactive
DNAJC27	1.34	-0.404	0.0713	inactive
PC	-0.878	0.533	0.501	inactive

Hits, of those listed so far:
gene symbol	robust z-score, replicate 1	robust z-score, replicate 2	robust z-score, replicate 3	outcome
SLC35F5	2.83	2.85	2.31	active
DEFB121	2.1	2.17	2.45	active
M6PR	4.19	5.51	2.47	active
UBQLN1	0.645	2.3	2.12	active
TPT1P9	3.3	2.72	2.72	active
